# Test results published in PubChem BioAssay AID1347131 (National Center for Advancing Translational Sciences (NCATS), 2019).
# The campaign covered roughly 410,000 compounds. About 2,000 (0.49%) were called active. The shares of active, inactive and inconclusive entries below differ from those in the screen. Calls come from the whole dose curve; tested in HEK293 reporter line. Potencies of inconclusive entries are doubtful fits and often do not repeat.
# Experiment: qHTS Assay for Foot and Mouth Disease Virus Antivirals: Primary Screen against the MLPCN compound library; note: nearly all actives have a fitted effect of over 55% in size
# Details: FMDV antiviral cell-based qHTS; activity, negative = inhibition: at 57.9 µM (top of the series)
# Potency is the fitted concentration of half-maximal effect.
SMILES,Potency,"activity, negative = inhibition"
Cc1cccc(Nc2nc(N)c([N+](=O)[O-])c(N3CC(C)OC(C)C3)n2)c1 (stereo unspecified),"inconclusive: 3.16 µM [inhibitor, partial curve, poor fit]",
COc1cc(C2CC(c3cccs3)=NN2C(=O)CCl)ccc1OC(F)F (stereo unspecified),"inconclusive: 15.8 µM [inhibitor, partial curve, poor fit]",
COc1cc2c(cc1NC(=O)c1cccc([N+](=O)[O-])c1)oc1ccccc12,"inconclusive: 12.6 µM [inhibitor, partial curve, poor fit]",
COc1cc(/C=C2/C(=O)c3cccc([N+](=O)[O-])c3C2=O)c(Br)cc1O,"inconclusive: 3.55 µM [inhibitor, full curve, poor fit]",
COC(=O)c1ccccc1N/C=C1\CCc2c(c(C)nn2-c2ccccn2)C1=O,,inconclusive: -39.8% [inhibitor]
Cn1c(=O)[nH]c(=O)c2c1nc(Br)n2CCOc1ccccc1,"inconclusive: 17.8 µM [inhibitor, partial curve, poor fit]",
Cc1ccc(CNC(=O)c2c(-c3cccc(Br)c3)noc2C)o1,"inconclusive: 4.47 µM [inhibitor, full curve]",
COc1cc(CNCc2ccccn2)ccc1OCc1ccccc1Cl,,inactive: -36.2%
Cc1c(C(=O)NCc2ccc(Cl)c(Cl)c2)sc(=O)n1Cc1ccc(S(C)(=O)=O)cc1,"inconclusive: 35.5 µM [inhibitor, partial curve, poor fit]",
Cc1cccnc1NC(=O)c1cc2ccccc2oc1=O,active: 10 µM,
CCN(CC)S(=O)(=O)c1cccc(NC(=O)/C=C/c2cccc([N+](=O)[O-])c2)c1,"inconclusive: 17.8 µM [inhibitor, partial curve, poor fit]",
CCN1C(=O)c2cccc3c(S(=O)(=O)N(C(=O)c4cccnc4)c4ccc(OC)cc4)ccc1c23,"inconclusive: 39.8 µM [inhibitor, single point]",
COC(=O)C1=Nc2ccccc2/C1=C\c1c(O)n(-c2ccc(Br)cc2)c(=O)[nH]c1=O,"inconclusive: 20 µM [inhibitor, partial curve, poor fit]",
CCOC(=O)c1ccc(NC(=O)c2ccc3c(c2)C(=O)N(Cc2cccnc2)C3=O)cc1,"inconclusive: 17.8 µM [inhibitor, partial curve, poor fit]",
C=CC[C@@H](CC(=O)N(CCO)Cc1ccccc1)C(=O)NC[C@H](OC(=O)[C@@H](CC=C)Cc1ccc(F)cc1)c1ccccc1,"inconclusive: 14.1 µM [inhibitor, partial curve, poor fit]",
CC(C)CCn1c(NCCc2ccccc2)nc2c1c(=O)n(C)c(=O)n2C,"inconclusive: 20 µM [inhibitor, partial curve, poor fit]",
COc1cc(-c2cnc3c(NC=O)cc(-c4cccc(C(F)(F)F)c4)cn23)cc(OC)c1OC,"inconclusive: 20 µM [inhibitor, partial curve, poor fit]",
Fc1ccc(-c2noc(-c3ccc4c(c3)CCO4)n2)cc1,active: 12.6 µM,
O=C(Nc1ccc(Br)cc1)c1cccc(N2C(=O)C3C4CCC(C4)C3C2=O)c1 (stereo unspecified),"inconclusive: 39.8 µM [inhibitor, single point]",

SMILES,Potency,"activity, negative = inhibition"
CN(c1ccccc1)S(=O)(=O)c1ccc(NC(=O)CC(=O)c2ccccc2)cc1,"inconclusive: 39.8 µM [inhibitor, single point]",
Cc1ccc(/C=C/c2nc3ccccc3[nH]2)o1,"inconclusive: 15.8 µM [inhibitor, single point]",
Cc1ccc(C(=O)OCC(=O)Nc2nc(-c3ccccc3)cs2)cc1NC(=O)c1ccco1,"inconclusive: 25.1 µM [inhibitor, partial curve, poor fit]",
O=c1[nH]c(CSc2nc3ccccc3[nH]2)nc2c1cnn2-c1ccccc1,"inconclusive: 22.4 µM [inhibitor, partial curve, poor fit]",
COc1ccc(CCNC(=O)c2ccc(CS(=O)(=O)c3ccc(Br)cc3)o2)cc1OC,"inconclusive: 31.6 µM [inhibitor, partial curve, poor fit]",
COc1cc2[nH]c(=O)n(CCCCCC(=O)N3CCN(c4ccc(Cl)cc4)CC3)c(=O)c2cc1OC,"inconclusive: 17.8 µM [inhibitor, partial curve, poor fit]",
O=C(Nc1ccc2nc(SCCOc3ccccc3)sc2c1)c1ccc2c(c1)OCO2,,inactive: -33.5%
COc1cc(CCC(=O)N2CCN(c3ccc([N+](=O)[O-])cc3)CC2)cc(OC)c1OC,,inconclusive: -30.7% [inhibitor]
CN(CC(=O)NC(=O)NC1CCCCC1)CC(=O)Nc1ccc(Cl)cc1,"inconclusive: 7.08 µM [inhibitor, partial curve]",
COc1ccc(N2CCN(CC(=O)Nc3ccccc3SC)CC2)cc1,"inconclusive: 20 µM [inhibitor, partial curve, poor fit]",
Cc1ccc(NC2=NC3(CCCCC3)N=C(N)N2)c(C)c1,"inconclusive: 12.6 µM [inhibitor, partial curve]",
Oc1c(C=Nc2ccccc2)sc2ccccc12,"inconclusive: 14.1 µM [inhibitor, single point]",
CC(=O)c1c(C)[nH]c(C(=O)OCC(=O)Nc2c(C)n(C)n(-c3ccccc3)c2=O)c1C,"inconclusive: 15.8 µM [inhibitor, partial curve]",
O=c1c2cnn(-c3ccccc3)c2nnn1Cc1ccccn1,"inconclusive: 20 µM [inhibitor, single point]",
C[C@@H]1CN([C@@H](C)CO)C(=O)c2cc(-c3ccncc3)cnc2O[C@H]1CN(C)C(=O)c1cccc(F)c1,"inconclusive: 0.891 µM [inhibitor, full curve]",
O=C(CCl)N(C/C=C/c1ccccc1)c1ccc2c(c1)OCCO2,"inconclusive: 25.1 µM [inhibitor, partial curve, poor fit]",
Cn1c(=O)n(C)c2cc([N+](=O)[O-])c(N3CCN(C(=O)c4ccccc4Br)CC3)cc21,"inconclusive: 15.8 µM [inhibitor, partial curve, poor fit]",
CN1C(=O)/C(=C/c2cccc([N+](=O)[O-])c2)C(=O)N1c1ccccc1,"inconclusive: 31.6 µM [inhibitor, partial curve, poor fit]",
O=C(Nc1nc(-c2ccccc2)cs1)C1CCCN(S(=O)(=O)c2cccc([N+](=O)[O-])c2)C1 (stereo unspecified),"inconclusive: 6.31 µM [inhibitor, partial curve, poor fit]",

SMILES,Potency,"activity, negative = inhibition"
CCc1cccc(CC)c1N(COC)C(=O)Cn1c(C)nc2ccccc21,"inconclusive: 10 µM [inhibitor, partial curve, poor fit]",
CC(=O)Nc1ccc(S(=O)(=O)N(C)CC(=O)OCC(=O)NNC(=O)c2ccccc2F)cc1,"inconclusive: 4.47 µM [inhibitor, partial curve, poor fit]",
C#CCSc1nc(-c2ccccc2)cc(C(F)(F)F)c1C#N,"inconclusive: 7.94 µM [inhibitor, full curve]",
CC(NC(=O)/C(C#N)=C1\N=C(NC(=O)c2ccco2)c2ccccc21)c1ccccc1 (stereo unspecified),"inconclusive: 8.91 µM [inhibitor, partial curve]",
CCCC(=O)Nc1ccc2nc(C)n(Cc3ccccc3Cl)c(=O)c2c1,,inactive: -30.7%
COc1ccc(NC(=O)C2CCCN(S(=O)(=O)c3ccc(C)cc3)C2)cc1OC (stereo unspecified),"inconclusive: 22.4 µM [inhibitor, partial curve, poor fit]",
N/C(=N\OC(=O)c1ccc(Cl)cc1Cl)c1ccccc1,"inconclusive: 14.1 µM [inhibitor, single point]",
CCn1cc(C(=O)O)c(=O)c2cc(F)c(N/N=C/c3ccccc3[N+](=O)[O-])cc21,"inconclusive: 20 µM [inhibitor, partial curve, poor fit]",
COc1ccc(C2C(C(=O)Nc3cc(OC)c(OC)c(OC)c3)c3ccccc3C(=O)N2C)cc1 (stereo unspecified),"inconclusive: 31.6 µM [inhibitor, partial curve, poor fit]",
Cc1ccsc1/C=N/Nc1ccc(C(=O)O)cc1,"inconclusive: 8.91 µM [inhibitor, partial curve, poor fit]",
O=C(CCN1CC2CCC(CC2)C1)c1cccs1,"inconclusive: 25.1 µM [inhibitor, partial curve, poor fit]",
CC(=O)Oc1ccc(N(C(C)=O)S(=O)(=O)c2cccs2)c2ccccc12,"inconclusive: 15.8 µM [inhibitor, partial curve, poor fit]",
O=C(Nc1ccc(CN2CCOCC2)cc1)c1ccc(-c2cccc(Cl)c2)o1,"inconclusive: 35.5 µM [inhibitor, partial curve, poor fit]",
COC(=O)c1ccc(-c2nc3cc(Cl)c(N)cc3s2)cc1,"inconclusive: 10 µM [inhibitor, partial curve, poor fit]",
COc1cc(C(F)(F)F)nc2ccc(C#CCOC(=O)Nc3ccccc3)cc12,"inconclusive: 7.08 µM [inhibitor, partial curve]",
Cc1ccccc1-n1nnnc1Sc1nnnn1-c1ccccc1,"inconclusive: 8.91 µM [inhibitor, full curve, poor fit]",
Cc1ccc2sc(N(CCCN(C)C)C(=O)c3ccc(S(=O)(=O)N(C)Cc4ccccc4)cc3)nc2c1C,"inconclusive: 31.6 µM [inhibitor, partial curve, poor fit]",
COc1ccc(/C=C\C(=O)c2c(O)ccc3c(C)cc(=O)oc23)cc1OC,"inconclusive: 35.5 µM [inhibitor, partial curve, poor fit]",

# Arranged by length of the SMILES (falling): some entries from above
SMILES,Potency,"activity, negative = inhibition"
CC(=O)c1c(C)[nH]c(C(=O)OCC(=O)Nc2c(C)n(C)n(-c3ccccc3)c2=O)c1C,"inconclusive: 15.8 µM [inhibitor, partial curve]",
COc1ccc(NC(=O)C2CCCN(S(=O)(=O)c3ccc(C)cc3)C2)cc1OC (stereo unspecified),"inconclusive: 22.4 µM [inhibitor, partial curve, poor fit]",
CC(C)CCn1c(NCCc2ccccc2)nc2c1c(=O)n(C)c(=O)n2C,"inconclusive: 20 µM [inhibitor, partial curve, poor fit]",
C#CCSc1nc(-c2ccccc2)cc(C(F)(F)F)c1C#N,"inconclusive: 7.94 µM [inhibitor, full curve]",
